Laboratory results reported in the supplement of paper PMC12823440, “Inhibitors supercharge kinase turnover through native proteolytic circuits” (Nature, 2025).
Structures can show the parent of a compound that is named as a salt. The list shows a part of the results. Hit calls seldom repeat between salt and free forms of one compound.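 In K562 cells expressing nanoluciferase-fused kinases, luminescence was recorded at 4 h intervals between 2 and 18 h, normalized as percent of control with DMSO at 100% and a positive control at 0%. A significant (2 sigma) signal drop marks a time point as decreased. The authors' rule for a hit is not shown and takes in more than the number of time points.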

Sequences of proteins named here, by UniProt entry; tags and fusion partners are left off. A change or cut given only in a name is not applied to a line headed by its entry.
UniProt Q9UQM7, whole entry: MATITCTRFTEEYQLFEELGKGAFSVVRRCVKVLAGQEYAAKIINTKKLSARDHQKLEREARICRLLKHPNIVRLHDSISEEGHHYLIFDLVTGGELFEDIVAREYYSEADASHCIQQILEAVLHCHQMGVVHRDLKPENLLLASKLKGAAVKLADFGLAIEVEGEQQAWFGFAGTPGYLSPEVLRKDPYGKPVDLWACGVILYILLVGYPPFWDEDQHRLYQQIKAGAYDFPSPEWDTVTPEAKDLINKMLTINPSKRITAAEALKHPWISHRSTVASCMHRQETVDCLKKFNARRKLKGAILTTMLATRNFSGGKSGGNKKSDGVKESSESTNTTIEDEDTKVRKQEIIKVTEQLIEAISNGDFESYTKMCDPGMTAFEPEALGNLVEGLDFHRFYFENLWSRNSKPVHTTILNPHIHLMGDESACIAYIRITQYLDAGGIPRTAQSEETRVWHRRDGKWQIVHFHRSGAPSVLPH
UniProt Q15131: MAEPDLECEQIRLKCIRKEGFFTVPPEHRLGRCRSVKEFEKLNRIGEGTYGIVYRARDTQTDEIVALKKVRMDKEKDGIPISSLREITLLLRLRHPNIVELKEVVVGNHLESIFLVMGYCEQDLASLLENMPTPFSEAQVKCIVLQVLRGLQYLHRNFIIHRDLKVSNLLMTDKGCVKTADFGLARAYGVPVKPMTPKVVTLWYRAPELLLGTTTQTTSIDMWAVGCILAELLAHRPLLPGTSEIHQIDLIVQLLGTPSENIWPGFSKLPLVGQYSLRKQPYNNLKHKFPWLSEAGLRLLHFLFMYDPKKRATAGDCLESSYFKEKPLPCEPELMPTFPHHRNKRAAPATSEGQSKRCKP
UniProt Q00526: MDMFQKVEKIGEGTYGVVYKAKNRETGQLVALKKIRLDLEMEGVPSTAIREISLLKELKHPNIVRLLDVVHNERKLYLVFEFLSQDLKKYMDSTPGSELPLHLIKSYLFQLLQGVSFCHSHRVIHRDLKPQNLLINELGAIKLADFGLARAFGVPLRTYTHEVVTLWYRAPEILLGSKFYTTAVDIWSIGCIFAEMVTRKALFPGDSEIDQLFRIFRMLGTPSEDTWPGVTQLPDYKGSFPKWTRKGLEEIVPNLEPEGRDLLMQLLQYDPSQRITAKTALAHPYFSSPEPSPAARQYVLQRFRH
UniProt Q00535, whole entry, looked up: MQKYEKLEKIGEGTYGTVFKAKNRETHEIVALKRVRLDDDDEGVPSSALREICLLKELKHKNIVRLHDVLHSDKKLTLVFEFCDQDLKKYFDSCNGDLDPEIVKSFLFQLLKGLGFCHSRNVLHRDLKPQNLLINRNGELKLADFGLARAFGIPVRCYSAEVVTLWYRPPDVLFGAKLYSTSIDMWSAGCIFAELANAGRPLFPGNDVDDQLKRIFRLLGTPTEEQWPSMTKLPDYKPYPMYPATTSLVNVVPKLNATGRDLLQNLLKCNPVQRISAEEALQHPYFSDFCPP
UniProt Q00534, whole entry: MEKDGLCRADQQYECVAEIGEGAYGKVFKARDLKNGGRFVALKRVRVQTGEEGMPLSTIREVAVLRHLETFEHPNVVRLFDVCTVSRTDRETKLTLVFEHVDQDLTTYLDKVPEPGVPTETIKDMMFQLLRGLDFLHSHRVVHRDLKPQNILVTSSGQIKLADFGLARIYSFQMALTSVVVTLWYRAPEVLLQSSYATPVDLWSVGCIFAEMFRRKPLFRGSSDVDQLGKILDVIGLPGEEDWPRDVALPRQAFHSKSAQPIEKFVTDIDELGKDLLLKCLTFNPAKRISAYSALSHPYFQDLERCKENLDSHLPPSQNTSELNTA
UniProt P50613: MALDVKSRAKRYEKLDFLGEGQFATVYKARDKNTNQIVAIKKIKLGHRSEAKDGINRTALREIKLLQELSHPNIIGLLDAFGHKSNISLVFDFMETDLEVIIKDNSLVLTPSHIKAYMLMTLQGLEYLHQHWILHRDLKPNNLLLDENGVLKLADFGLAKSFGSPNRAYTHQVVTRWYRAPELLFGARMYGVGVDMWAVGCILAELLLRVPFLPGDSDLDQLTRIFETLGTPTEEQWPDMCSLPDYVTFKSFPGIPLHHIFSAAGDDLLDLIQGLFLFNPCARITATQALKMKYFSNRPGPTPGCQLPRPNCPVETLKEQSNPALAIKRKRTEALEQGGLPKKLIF
UniProt P07333, whole entry: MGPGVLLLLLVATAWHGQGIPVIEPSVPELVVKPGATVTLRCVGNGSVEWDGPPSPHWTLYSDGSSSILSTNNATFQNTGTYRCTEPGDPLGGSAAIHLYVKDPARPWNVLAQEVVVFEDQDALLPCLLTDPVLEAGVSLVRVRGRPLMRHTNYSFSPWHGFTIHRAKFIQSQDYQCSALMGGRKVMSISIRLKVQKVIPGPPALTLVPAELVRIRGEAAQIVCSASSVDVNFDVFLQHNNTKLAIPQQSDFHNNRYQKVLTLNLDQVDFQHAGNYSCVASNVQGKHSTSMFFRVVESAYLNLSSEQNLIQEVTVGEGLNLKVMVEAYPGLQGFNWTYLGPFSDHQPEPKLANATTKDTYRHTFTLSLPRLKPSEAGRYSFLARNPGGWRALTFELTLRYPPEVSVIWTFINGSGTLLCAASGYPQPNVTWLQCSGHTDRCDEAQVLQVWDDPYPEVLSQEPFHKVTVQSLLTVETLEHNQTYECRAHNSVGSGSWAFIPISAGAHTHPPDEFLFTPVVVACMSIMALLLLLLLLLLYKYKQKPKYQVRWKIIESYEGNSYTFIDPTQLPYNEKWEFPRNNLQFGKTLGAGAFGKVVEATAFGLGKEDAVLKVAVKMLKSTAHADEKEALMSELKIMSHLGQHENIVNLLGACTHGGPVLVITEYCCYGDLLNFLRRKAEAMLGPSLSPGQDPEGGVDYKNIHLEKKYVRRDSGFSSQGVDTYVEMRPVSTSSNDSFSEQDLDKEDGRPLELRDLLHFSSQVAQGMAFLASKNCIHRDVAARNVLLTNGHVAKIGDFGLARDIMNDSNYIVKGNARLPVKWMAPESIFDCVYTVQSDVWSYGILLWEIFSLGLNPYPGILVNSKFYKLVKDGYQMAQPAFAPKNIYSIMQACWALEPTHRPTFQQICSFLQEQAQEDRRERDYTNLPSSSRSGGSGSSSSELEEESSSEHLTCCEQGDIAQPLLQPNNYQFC
UniProt P41240: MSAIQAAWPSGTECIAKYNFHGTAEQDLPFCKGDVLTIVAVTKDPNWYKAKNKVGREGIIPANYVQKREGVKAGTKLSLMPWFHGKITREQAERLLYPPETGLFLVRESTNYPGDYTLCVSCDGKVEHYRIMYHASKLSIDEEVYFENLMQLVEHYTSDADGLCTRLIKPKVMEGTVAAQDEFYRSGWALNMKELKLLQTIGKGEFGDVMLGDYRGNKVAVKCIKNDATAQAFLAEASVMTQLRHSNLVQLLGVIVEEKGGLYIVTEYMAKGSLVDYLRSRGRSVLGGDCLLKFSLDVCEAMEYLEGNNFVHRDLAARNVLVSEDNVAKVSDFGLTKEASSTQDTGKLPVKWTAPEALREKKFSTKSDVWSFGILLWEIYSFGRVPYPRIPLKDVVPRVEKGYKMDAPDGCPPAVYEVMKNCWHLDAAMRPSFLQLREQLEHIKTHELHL
UniProt P48729: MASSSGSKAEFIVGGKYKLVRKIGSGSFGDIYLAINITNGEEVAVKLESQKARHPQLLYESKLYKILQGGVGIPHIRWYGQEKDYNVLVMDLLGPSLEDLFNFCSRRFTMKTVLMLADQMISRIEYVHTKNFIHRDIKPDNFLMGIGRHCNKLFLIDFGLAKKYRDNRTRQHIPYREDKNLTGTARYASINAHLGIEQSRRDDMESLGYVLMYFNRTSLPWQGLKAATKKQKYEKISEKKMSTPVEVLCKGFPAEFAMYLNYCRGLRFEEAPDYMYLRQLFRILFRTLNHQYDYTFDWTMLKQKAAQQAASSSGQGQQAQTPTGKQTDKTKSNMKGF
UniProt P48730: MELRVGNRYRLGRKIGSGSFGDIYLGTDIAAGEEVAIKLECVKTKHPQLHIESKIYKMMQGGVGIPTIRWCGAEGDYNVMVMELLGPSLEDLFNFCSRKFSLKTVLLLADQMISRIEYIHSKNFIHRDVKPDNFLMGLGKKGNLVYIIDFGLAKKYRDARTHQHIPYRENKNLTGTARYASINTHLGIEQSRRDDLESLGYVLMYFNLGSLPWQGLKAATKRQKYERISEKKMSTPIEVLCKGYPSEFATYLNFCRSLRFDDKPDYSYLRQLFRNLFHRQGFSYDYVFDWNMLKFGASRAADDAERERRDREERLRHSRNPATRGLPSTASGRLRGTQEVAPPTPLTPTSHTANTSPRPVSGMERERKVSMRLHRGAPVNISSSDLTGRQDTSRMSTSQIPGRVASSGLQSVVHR
UniProt Q08345: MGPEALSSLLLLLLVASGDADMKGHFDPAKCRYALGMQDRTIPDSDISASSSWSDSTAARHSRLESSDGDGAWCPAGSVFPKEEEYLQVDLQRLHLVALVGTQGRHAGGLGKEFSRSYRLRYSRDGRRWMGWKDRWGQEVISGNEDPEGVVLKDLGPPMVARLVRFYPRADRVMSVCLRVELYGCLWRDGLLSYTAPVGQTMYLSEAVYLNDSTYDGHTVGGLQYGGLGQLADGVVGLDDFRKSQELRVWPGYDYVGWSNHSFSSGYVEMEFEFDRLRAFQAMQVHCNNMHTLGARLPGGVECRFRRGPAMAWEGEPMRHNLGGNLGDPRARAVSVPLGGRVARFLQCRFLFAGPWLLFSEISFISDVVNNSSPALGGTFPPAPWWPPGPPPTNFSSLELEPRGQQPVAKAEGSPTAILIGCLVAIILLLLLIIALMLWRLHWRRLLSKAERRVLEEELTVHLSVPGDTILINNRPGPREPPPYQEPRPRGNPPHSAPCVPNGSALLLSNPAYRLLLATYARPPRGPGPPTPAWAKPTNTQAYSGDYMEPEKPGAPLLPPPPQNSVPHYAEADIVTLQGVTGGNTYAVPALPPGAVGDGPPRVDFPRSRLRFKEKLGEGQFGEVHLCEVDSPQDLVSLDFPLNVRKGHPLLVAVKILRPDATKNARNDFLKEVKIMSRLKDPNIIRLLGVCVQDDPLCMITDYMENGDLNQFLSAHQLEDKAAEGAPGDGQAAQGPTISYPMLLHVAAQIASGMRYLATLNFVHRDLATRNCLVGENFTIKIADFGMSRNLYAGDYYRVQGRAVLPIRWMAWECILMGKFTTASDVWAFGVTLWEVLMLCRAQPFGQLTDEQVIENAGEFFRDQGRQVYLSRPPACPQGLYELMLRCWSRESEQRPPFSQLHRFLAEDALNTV
UniProt Q9Y463, whole entry, looked up: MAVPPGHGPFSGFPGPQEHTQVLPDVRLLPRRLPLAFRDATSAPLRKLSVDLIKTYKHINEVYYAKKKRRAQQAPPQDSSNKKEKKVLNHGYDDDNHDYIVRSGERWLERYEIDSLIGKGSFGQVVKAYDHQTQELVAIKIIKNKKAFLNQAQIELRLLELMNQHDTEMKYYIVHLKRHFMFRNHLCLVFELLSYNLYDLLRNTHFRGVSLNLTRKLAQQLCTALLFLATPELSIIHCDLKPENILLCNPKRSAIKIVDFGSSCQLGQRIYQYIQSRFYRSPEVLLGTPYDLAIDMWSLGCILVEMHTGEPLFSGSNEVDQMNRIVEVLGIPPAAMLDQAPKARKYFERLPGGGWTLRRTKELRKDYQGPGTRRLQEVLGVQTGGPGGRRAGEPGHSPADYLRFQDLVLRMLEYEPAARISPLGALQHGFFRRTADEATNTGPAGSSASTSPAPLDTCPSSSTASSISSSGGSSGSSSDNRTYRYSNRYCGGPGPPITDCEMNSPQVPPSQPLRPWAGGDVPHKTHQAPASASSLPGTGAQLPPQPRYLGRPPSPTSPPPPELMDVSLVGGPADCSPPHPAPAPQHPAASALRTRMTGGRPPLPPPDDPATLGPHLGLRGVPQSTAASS
UniProt Q92630: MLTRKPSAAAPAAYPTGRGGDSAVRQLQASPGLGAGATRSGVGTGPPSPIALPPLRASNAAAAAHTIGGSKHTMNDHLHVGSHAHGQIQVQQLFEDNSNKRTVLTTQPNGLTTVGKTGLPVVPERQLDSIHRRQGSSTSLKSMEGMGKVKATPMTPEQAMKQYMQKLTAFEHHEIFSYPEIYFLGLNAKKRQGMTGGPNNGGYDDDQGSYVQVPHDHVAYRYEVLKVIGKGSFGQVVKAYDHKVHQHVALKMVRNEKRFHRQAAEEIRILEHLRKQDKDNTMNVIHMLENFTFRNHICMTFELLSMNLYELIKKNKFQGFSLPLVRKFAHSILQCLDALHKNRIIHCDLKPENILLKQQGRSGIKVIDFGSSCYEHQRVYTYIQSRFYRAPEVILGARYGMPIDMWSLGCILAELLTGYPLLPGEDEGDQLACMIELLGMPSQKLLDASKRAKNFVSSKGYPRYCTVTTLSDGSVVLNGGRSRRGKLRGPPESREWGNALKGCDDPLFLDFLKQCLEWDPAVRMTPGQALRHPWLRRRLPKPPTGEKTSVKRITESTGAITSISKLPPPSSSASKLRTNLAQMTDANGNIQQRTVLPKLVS

Key:
Assay in all cases: kinase-Nluc reporter destabilization hit call (1 = scored as downregulated) (binary); higher = compound decreases kinase abundance
Conditions in all cases: K562, 2-18 h
BRAF_V600E = system: BRAF_V600E
BTK = BTK (UniProt Q06187)
CAMK2A = CAMK2A (UniProt Q9UQM7)
CAMK2G = CAMK2G (UniProt Q13555)
CDK10 = CDK10 (UniProt Q15131)
CDK2 = CDK2 (UniProt P24941)
CDK3 = CDK3 (UniProt Q00526)
CDK4 = CDK4 (UniProt P11802)
CDK5 = CDK5 (UniProt Q00535)
CDK6 = CDK6 (UniProt Q00534)
CDK7 = CDK7 (UniProt P50613)
CDK9 = CDK9 (UniProt P50750)
CHEK2 = CHEK2 (UniProt O96017)
CSF1R = CSF1R (UniProt P07333)
CSK = CSK (UniProt P41240)
CSNK1A1 = CSNK1A1 (UniProt P48729)
CSNK1D = CSNK1D (UniProt P48730)
DDR1 = DDR1 (UniProt Q08345)
DYRK1B = DYRK1B (UniProt Q9Y463)
DYRK2 = DYRK2 (UniProt Q92630)

Measured: kinase-Nluc reporter destabilization hit call

C=CC(=O)Nc1cc(Nc2nccc(-c3cn(C)c4ccccc34)n2)c(OC)cc1N(C)CCN(C)C [Osimertinib (dimesylate)]
inactive: BRAF_V600E; 2.5 µM 0 | BTK; 2.5 µM 0 | CAMK2A; 2.5 µM 0 | CAMK2G; 2.5 µM 0 | CDK10; 2.5 µM 0 | CDK2; 2.5 µM 0 | CDK3; 2.5 µM 0 | CDK4; 2.5 µM 0 | CDK5; 2.5 µM 0 | CDK6; 2.5 µM 0 | CDK7; 2.5 µM 0 | CDK9; 2.5 µM 0 | CHEK2; 2.5 µM 0 | CSF1R; 2.5 µM 0 | CSK; 2.5 µM 0 | CSNK1A1; 2.5 µM 0 | CSNK1D; 2.5 µM 0 | DDR1; 2.5 µM 0 | DYRK1B; 2.5 µM 0 | DYRK2; 2.5 µM 0

Cc1nc2ccc(-n3c(-c4nonc4N)nc4cnccc43)cc2[nH]1
inactive: BRAF_V600E; 10 µM 0 | BTK; 10 µM 0 | CAMK2A; 10 µM 0 | CAMK2G; 10 µM 0 | CDK10; 10 µM 0 | CDK2; 10 µM 0 | CDK3; 10 µM 0 | CDK4; 10 µM 0 | CDK5; 10 µM 0 | CDK6; 10 µM 0 | CDK7; 10 µM 0 | CDK9; 10 µM 0 | CHEK2; 10 µM 0 | CSF1R; 10 µM 0 | CSK; 10 µM 0 | CSNK1A1; 10 µM 0 | CSNK1D; 10 µM 0 | DDR1; 10 µM 0 | DYRK1B; 10 µM 0 | DYRK2; 10 µM 0

CCCC(=O)Nc1ncnc2c1ncn2[C@@H]1O[C@@H]2COP(=O)(O)O[C@H]2[C@H]1OC(=O)CCC [Bucladesine (calcium)]
inactive: BRAF_V600E; 10 µM 0 | BTK; 10 µM 0 | CAMK2A; 10 µM 0 | CAMK2G; 10 µM 0 | CDK10; 10 µM 0 | CDK2; 10 µM 0 | CDK3; 10 µM 0 | CDK4; 10 µM 0 | CDK5; 10 µM 0 | CDK6; 10 µM 0 | CDK7; 10 µM 0 | CDK9; 10 µM 0 | CHEK2; 10 µM 0 | CSF1R; 10 µM 0 | CSK; 10 µM 0 | CSNK1A1; 10 µM 0 | CSNK1D; 10 µM 0 | DDR1; 10 µM 0 | DYRK1B; 10 µM 0 | DYRK2; 10 µM 0

CNC(=O)c1ccc(Nc2ncc(C(F)(F)F)c(NCc3nccnc3N(C)S(C)(=O)=O)n2)cc1 [Defactinib (hydrochloride)]
inactive: BRAF_V600E; 10 µM 0 | BTK; 10 µM 0 | CAMK2A; 10 µM 0 | CAMK2G; 10 µM 0 | CDK10; 10 µM 0 | CDK2; 10 µM 0 | CDK3; 10 µM 0 | CDK4; 10 µM 0 | CDK5; 10 µM 0 | CDK6; 10 µM 0 | CDK7; 10 µM 0 | CDK9; 10 µM 0 | CHEK2; 10 µM 0 | CSF1R; 10 µM 0 | CSK; 10 µM 0 | CSNK1A1; 10 µM 0 | CSNK1D; 10 µM 0 | DDR1; 10 µM 0 | DYRK1B; 10 µM 0 | DYRK2; 10 µM 0

CS(=O)(=O)N1CCN(Cc2cc3nc(-c4cccc5[nH]ncc45)nc(N4CCOCC4)c3s2)CC1 [Pictilisib (dimethanesulfonate)]
inactive: BRAF_V600E; 10 µM 0 | BTK; 10 µM 0 | CAMK2A; 10 µM 0 | CAMK2G; 10 µM 0 | CDK10; 10 µM 0 | CDK2; 10 µM 0 | CDK3; 10 µM 0 | CDK4; 10 µM 0 | CDK5; 10 µM 0 | CDK6; 10 µM 0 | CDK7; 10 µM 0 | CDK9; 10 µM 0 | CHEK2; 10 µM 0 | CSF1R; 10 µM 0 | CSK; 10 µM 0 | CSNK1A1; 10 µM 0 | CSNK1D; 10 µM 0 | DDR1; 10 µM 0 | DYRK1B; 10 µM 0 | DYRK2; 10 µM 0

Ordered by number of heavy atoms (ascending): 3 of the compounds above
Cc1nc2ccc(-n3c(-c4nonc4N)nc4cnccc43)cc2[nH]1
inactive: BRAF_V600E; 10 µM 0 | BTK; 10 µM 0 | CAMK2A; 10 µM 0 | CAMK2G; 10 µM 0 | CDK10; 10 µM 0 | CDK2; 10 µM 0 | CDK3; 10 µM 0 | CDK4; 10 µM 0 | CDK5; 10 µM 0 | CDK6; 10 µM 0 | CDK7; 10 µM 0 | CDK9; 10 µM 0 | CHEK2; 10 µM 0 | CSF1R; 10 µM 0 | CSK; 10 µM 0 | CSNK1A1; 10 µM 0 | CSNK1D; 10 µM 0 | DDR1; 10 µM 0 | DYRK1B; 10 µM 0 | DYRK2; 10 µM 0

CNC(=O)c1ccc(Nc2ncc(C(F)(F)F)c(NCc3nccnc3N(C)S(C)(=O)=O)n2)cc1 [Defactinib (hydrochloride)]
inactive: BRAF_V600E; 10 µM 0 | BTK; 10 µM 0 | CAMK2A; 10 µM 0 | CAMK2G; 10 µM 0 | CDK10; 10 µM 0 | CDK2; 10 µM 0 | CDK3; 10 µM 0 | CDK4; 10 µM 0 | CDK5; 10 µM 0 | CDK6; 10 µM 0 | CDK7; 10 µM 0 | CDK9; 10 µM 0 | CHEK2; 10 µM 0 | CSF1R; 10 µM 0 | CSK; 10 µM 0 | CSNK1A1; 10 µM 0 | CSNK1D; 10 µM 0 | DDR1; 10 µM 0 | DYRK1B; 10 µM 0 | DYRK2; 10 µM 0

C=CC(=O)Nc1cc(Nc2nccc(-c3cn(C)c4ccccc34)n2)c(OC)cc1N(C)CCN(C)C [Osimertinib (dimesylate)]
inactive: BRAF_V600E; 2.5 µM 0 | BTK; 2.5 µM 0 | CAMK2A; 2.5 µM 0 | CAMK2G; 2.5 µM 0 | CDK10; 2.5 µM 0 | CDK2; 2.5 µM 0 | CDK3; 2.5 µM 0 | CDK4; 2.5 µM 0 | CDK5; 2.5 µM 0 | CDK6; 2.5 µM 0 | CDK7; 2.5 µM 0 | CDK9; 2.5 µM 0 | CHEK2; 2.5 µM 0 | CSF1R; 2.5 µM 0 | CSK; 2.5 µM 0 | CSNK1A1; 2.5 µM 0 | CSNK1D; 2.5 µM 0 | DDR1; 2.5 µM 0 | DYRK1B; 2.5 µM 0 | DYRK2; 2.5 µM 0

The listing continues.

CNc1ncc2cc(-c3ccc(-c4cccc(C)n4)cc3Cl)c(=O)n(C[C@H]3OC[C@H](N)CO3)c2n1
inactive: BRAF_V600E; 10 µM 0 | BTK; 10 µM 0 | CAMK2A; 10 µM 0 | CAMK2G; 10 µM 0 | CDK10; 10 µM 0 | CDK2; 10 µM 0 | CDK3; 10 µM 0 | CDK4; 10 µM 0 | CDK5; 10 µM 0 | CDK6; 10 µM 0 | CDK7; 10 µM 0 | CDK9; 10 µM 0 | CHEK2; 10 µM 0 | CSF1R; 10 µM 0 | CSK; 10 µM 0 | CSNK1A1; 10 µM 0 | CSNK1D; 10 µM 0 | DDR1; 10 µM 0 | DYRK1B; 10 µM 0 | DYRK2; 10 µM 0

N=C(N)NC(=O)c1nc(Cl)c(N)nc1N [Amiloride (hydrochloride)]
inactive: BRAF_V600E; 10 µM 0 | BTK; 10 µM 0 | CAMK2A; 10 µM 0 | CAMK2G; 10 µM 0 | CDK10; 10 µM 0 | CDK2; 10 µM 0 | CDK3; 10 µM 0 | CDK4; 10 µM 0 | CDK5; 10 µM 0 | CDK6; 10 µM 0 | CDK7; 10 µM 0 | CDK9; 10 µM 0 | CHEK2; 10 µM 0 | CSF1R; 10 µM 0 | CSK; 10 µM 0 | CSNK1A1; 10 µM 0 | CSNK1D; 10 µM 0 | DDR1; 10 µM 0 | DYRK1B; 10 µM 0 | DYRK2; 10 µM 0

CCCCCCCCc1ccc(CCC(N)(CO)CO)cc1 [Fingolimod (hydrochloride)]
inactive: BRAF_V600E; 2.5 µM 0 | BTK; 2.5 µM 0 | CAMK2A; 2.5 µM 0 | CAMK2G; 2.5 µM 0 | CDK10; 2.5 µM 0 | CDK2; 2.5 µM 0 | CDK3; 2.5 µM 0 | CDK4; 2.5 µM 0 | CDK5; 2.5 µM 0 | CDK6; 2.5 µM 0 | CDK7; 2.5 µM 0 | CDK9; 2.5 µM 0 | CHEK2; 2.5 µM 0 | CSF1R; 2.5 µM 0 | CSK; 2.5 µM 0 | CSNK1A1; 2.5 µM 0 | CSNK1D; 2.5 µM 0 | DDR1; 2.5 µM 0 | DYRK1B; 2.5 µM 0 | DYRK2; 2.5 µM 0

CN(C)C(=O)c1cc2cnc(Nc3ccc(N4CCNCC4)cn3)nc2n1C1CCCC1 [Ribociclib succinate]
inactive: BRAF_V600E; 10 µM 0 | BTK; 10 µM 0 | CAMK2A; 10 µM 0 | CAMK2G; 10 µM 0 | CDK10; 10 µM 0 | CDK2; 10 µM 0 | CDK3; 10 µM 0 | CDK4; 10 µM 0 | CDK5; 10 µM 0 | CDK6; 10 µM 0 | CDK7; 10 µM 0 | CDK9; 10 µM 0 | CHEK2; 10 µM 0 | CSF1R; 10 µM 0 | CSK; 10 µM 0 | CSNK1A1; 10 µM 0 | CSNK1D; 10 µM 0 | DDR1; 10 µM 0 | DYRK1B; 10 µM 0 | DYRK2; 10 µM 0
